According to PubChem BioAssay (EPA / NIEHS):
Values joined by “and” are separate entries in the source; they are usually repeats but may differ in a detail not shown here. Identical values can stand only once. Inconclusive results, whose numbers are uncertain, are shown with a selection of clear calls. For part of these data: A potency beside an inconclusive call is a rough fit, not a confirmed value. Active and inactive are the calls of the source. How the source made its calls: active means hit-call score of the fitted dose curve at least 0.9, where 1 is the maximum; inconclusive means response in the unintended direction; inactive means score below 0.9.

Sequences of proteins named here, by UniProt entry; tags and fusion partners are left off. A change or cut given only in a name is not applied to a line headed by its entry.
UniProt P05177, whole entry, looked up: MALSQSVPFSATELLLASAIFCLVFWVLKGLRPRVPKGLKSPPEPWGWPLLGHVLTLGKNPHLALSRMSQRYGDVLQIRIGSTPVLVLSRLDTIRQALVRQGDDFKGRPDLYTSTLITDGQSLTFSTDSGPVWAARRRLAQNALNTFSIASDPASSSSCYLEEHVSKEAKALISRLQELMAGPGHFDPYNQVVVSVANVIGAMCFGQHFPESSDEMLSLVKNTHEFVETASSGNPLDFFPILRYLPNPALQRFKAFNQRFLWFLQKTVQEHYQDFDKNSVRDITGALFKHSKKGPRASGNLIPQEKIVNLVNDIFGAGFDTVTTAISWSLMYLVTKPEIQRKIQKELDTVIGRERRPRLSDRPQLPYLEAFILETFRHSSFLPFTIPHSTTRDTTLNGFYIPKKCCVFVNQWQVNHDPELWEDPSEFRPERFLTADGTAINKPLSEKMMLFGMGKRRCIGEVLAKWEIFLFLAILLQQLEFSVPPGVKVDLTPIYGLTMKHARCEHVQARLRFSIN
UniProt P10635, whole entry, looked up: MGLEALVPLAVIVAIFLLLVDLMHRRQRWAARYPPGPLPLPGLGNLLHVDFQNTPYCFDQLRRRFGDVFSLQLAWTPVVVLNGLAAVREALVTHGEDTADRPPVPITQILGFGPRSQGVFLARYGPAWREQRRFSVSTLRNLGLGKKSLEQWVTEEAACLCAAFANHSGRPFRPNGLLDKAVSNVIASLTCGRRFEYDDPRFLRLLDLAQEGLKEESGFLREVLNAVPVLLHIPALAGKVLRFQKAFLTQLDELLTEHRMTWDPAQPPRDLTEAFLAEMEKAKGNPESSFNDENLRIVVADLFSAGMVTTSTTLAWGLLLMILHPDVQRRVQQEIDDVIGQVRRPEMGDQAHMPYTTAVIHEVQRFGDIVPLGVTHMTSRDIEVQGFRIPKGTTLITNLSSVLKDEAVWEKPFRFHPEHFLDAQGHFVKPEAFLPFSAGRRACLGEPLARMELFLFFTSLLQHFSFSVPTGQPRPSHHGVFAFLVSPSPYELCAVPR
UniProt P11712, whole entry, looked up: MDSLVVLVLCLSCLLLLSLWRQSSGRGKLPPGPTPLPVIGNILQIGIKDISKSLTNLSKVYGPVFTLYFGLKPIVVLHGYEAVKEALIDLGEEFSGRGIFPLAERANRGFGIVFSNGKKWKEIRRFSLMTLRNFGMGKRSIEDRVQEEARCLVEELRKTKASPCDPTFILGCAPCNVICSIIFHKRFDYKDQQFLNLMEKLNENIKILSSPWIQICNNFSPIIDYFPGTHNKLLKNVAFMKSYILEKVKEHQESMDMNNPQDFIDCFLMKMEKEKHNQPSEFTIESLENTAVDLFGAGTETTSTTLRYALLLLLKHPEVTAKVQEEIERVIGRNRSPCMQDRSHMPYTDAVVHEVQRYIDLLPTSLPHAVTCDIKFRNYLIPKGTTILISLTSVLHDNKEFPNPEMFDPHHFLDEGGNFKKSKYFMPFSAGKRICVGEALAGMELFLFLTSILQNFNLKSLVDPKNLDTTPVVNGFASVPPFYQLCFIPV
UniProt P31749: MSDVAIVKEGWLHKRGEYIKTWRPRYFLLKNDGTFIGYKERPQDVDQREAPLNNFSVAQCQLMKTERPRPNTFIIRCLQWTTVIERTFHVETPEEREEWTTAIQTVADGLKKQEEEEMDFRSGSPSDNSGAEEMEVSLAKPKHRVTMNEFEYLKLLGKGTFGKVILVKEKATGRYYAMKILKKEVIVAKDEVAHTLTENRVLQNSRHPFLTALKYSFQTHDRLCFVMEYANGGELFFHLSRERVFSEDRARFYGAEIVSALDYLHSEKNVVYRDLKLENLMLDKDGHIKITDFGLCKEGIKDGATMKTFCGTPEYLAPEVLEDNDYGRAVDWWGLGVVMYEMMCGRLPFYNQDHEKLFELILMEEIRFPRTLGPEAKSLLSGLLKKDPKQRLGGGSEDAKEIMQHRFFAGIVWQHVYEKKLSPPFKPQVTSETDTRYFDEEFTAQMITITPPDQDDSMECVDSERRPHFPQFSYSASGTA
UniProt Q14790: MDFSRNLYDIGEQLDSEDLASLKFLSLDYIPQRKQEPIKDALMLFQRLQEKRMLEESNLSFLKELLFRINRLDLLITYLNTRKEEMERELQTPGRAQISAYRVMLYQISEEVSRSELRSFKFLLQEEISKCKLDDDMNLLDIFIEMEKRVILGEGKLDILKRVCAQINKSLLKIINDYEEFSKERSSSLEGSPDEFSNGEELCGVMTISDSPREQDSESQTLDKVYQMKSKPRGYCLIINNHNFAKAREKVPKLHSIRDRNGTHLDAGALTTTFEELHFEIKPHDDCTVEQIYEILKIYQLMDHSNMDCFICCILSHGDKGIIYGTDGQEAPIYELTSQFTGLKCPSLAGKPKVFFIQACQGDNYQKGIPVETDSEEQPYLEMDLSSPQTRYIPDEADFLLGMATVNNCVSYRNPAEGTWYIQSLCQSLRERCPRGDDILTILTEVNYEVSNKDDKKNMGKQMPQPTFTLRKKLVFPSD
UniProt P31751: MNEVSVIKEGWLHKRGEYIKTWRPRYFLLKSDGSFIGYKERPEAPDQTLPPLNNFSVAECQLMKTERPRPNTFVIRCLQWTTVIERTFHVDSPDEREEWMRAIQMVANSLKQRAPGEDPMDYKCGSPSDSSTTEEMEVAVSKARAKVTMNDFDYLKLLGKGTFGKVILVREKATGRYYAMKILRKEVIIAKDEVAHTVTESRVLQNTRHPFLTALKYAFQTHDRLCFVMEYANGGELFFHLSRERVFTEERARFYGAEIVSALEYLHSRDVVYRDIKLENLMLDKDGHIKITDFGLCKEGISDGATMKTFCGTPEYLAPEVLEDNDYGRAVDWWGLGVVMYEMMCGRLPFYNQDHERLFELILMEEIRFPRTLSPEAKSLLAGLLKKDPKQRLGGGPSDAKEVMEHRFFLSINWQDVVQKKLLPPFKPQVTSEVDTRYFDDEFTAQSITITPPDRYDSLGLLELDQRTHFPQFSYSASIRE
UniProt P07333, whole entry, looked up: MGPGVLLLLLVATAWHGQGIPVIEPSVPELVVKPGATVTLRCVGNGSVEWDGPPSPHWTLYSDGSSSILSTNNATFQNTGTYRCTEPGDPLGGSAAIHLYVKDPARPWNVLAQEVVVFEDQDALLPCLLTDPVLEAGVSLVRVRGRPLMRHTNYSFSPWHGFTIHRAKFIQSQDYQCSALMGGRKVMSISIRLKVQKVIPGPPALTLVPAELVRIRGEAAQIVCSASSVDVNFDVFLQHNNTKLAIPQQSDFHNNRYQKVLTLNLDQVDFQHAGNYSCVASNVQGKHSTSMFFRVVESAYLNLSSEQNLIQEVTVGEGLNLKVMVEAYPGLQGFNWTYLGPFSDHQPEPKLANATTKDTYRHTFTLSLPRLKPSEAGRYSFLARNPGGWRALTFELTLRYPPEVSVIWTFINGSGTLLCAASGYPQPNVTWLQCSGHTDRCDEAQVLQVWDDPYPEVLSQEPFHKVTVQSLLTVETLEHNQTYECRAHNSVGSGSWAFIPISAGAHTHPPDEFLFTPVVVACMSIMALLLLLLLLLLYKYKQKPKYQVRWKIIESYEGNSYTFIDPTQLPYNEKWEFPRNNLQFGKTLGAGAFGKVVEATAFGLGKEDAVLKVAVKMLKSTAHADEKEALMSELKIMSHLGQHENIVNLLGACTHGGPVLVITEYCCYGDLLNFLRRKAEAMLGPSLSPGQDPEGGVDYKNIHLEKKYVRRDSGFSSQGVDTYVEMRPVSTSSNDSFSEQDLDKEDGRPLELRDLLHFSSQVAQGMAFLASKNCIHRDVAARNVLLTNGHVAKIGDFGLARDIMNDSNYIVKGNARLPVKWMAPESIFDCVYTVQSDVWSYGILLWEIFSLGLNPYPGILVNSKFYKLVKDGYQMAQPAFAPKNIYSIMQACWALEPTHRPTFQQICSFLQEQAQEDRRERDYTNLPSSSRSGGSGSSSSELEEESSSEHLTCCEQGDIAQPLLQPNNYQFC
UniProt P49662: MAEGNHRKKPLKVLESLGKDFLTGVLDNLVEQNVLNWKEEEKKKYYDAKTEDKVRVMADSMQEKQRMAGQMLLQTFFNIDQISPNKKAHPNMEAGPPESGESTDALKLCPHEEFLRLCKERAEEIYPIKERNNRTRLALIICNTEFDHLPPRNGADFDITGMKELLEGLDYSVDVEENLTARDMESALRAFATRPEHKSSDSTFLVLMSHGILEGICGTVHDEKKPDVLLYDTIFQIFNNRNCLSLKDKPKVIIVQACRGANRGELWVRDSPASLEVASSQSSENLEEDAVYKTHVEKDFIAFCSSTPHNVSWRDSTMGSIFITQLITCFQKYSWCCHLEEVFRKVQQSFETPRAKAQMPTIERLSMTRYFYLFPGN
UniProt P08684, whole entry, looked up: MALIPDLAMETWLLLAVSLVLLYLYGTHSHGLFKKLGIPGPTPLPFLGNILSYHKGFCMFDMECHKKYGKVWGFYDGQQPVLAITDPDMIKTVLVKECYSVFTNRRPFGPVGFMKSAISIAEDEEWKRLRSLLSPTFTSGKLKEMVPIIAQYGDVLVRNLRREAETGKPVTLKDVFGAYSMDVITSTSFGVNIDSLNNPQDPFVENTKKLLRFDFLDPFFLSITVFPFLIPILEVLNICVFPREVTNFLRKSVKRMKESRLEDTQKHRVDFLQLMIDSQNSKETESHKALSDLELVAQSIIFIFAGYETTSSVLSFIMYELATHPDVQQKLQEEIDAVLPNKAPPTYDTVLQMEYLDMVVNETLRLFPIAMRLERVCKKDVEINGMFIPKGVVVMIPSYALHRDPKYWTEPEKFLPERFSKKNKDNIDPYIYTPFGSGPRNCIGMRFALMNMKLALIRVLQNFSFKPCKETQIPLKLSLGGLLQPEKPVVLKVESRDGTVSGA
UniProt P24666: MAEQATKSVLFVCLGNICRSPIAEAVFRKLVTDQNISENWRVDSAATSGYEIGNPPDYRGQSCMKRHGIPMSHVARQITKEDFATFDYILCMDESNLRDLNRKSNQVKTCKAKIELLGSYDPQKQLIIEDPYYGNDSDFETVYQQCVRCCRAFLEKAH
UniProt P04798: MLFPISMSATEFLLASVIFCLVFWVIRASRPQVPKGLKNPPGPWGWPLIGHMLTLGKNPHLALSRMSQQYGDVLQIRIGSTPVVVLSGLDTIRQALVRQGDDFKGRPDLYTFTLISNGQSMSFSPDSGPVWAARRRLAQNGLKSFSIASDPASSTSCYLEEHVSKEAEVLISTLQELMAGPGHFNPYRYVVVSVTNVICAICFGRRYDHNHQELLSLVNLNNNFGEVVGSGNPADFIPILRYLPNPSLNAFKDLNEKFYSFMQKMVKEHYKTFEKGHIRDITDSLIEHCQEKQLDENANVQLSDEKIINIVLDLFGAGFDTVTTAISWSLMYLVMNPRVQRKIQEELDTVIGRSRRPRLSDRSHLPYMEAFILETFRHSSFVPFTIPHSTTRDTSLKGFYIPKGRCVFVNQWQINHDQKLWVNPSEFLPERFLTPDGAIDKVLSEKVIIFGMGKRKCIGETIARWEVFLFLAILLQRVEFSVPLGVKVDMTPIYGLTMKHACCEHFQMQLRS
UniProt P20813: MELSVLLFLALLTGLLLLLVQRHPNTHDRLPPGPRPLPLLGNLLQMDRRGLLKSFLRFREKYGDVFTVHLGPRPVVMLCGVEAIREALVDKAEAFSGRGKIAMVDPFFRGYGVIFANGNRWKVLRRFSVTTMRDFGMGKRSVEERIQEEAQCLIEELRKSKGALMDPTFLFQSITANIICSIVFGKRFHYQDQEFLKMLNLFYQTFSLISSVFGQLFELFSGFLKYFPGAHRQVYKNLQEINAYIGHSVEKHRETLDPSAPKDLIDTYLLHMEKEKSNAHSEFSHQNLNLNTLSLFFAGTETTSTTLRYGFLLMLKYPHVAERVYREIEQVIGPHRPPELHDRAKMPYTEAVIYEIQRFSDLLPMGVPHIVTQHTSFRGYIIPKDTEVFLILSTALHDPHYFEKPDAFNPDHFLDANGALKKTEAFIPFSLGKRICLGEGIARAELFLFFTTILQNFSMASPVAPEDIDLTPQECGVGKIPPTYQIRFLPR
UniProt P42574: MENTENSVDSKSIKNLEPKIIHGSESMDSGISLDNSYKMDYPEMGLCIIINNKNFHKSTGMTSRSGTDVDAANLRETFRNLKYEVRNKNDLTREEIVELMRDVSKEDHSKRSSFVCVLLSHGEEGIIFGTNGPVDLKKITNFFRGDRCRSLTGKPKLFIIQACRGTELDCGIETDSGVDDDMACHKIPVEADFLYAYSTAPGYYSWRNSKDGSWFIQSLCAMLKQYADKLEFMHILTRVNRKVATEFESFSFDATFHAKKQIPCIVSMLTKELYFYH

How the values were obtained:
[1] = biological target: human CYP1A2, CYP1A2 (gene 1544) (UniProt P05177); test: NVS_ADME_hCYP1A2: NovaScreen (NVS) CYP450-related Enzyme Activity (ADME) Assay for human CYP1A2 (AID 2283102);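 further: potency for inhibition since loss of fluorescence marks reduced CYP1A2 activity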
Summary of the method: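 Inhibition scored as decrease in fluorescent product versus acetonitrile negative control. Enzyme: insect-cell recombinant human CYP1A2, substrate-specific, cell-free. Reading at 0.5 h; 10 uM duplicate initial screen with positive and negative controls on every plate.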

[2] = biological target: human CYP2D6, CYP2D6 (gene 1565) (UniProt P10635); test: NVS_ADME_hCYP2D6: NovaScreen (NVS) CYP450-related Enzyme Activity (ADME) Assay for human CYP2D6 (AID 2283107)
Summary of the method: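 Biochemical fluorescence assay, insect-cell-derived enzyme. Read at 1 h; inhibition taken from loss of signal against acetonitrile. Screened at 10 uM in duplicate, with concentration series for actives.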

[3] = biological target: human CYP2C9, CYP2C9 (gene 1559) (UniProt P11712); test: NVS_ADME_hCYP2C9: NovaScreen (NVS) CYP450-related Enzyme Activity (ADME) Assay for human CYP2C9 (AID 2283108)
Summary of the method: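 Fluorescence readout of CYP2C9 activity (SF9-expressed human enzyme) at 0.75 h. The primary screen used 10 uM in duplicate, with concentration-response follow-up for actives; acetonitrile was the negative control.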

[4] = biological target: human AKT serine/threonine Kinase 1 (AKT1), AKT1 (gene 207) (UniProt P31749); test: NVS_ENZ_hAKT1: NovaScreen (NVS) Enzymatic Assay for human AKT serine/threonine Kinase 1 (AKT1) (AID 2283138)
Summary of the method: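 Recombinant AKT1, specific substrate, cell-free; 1 h; fluorescence intensity/electrophoretic mobility shift. Duplicate single-point 25 uM, then singleton CRC max 50 uM. DMSO = negative control/baseline; signal loss = inhibition.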

[5] = biological target: Cytochrome P450 2C19 (Homo sapiens) (UniProt P33261); test: NVS_ADME_hCYP2C19: NovaScreen (NVS) CYP450-related Enzyme Activity (ADME) Assay for human CYP2C19 (AID 2283113);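 on AC50: potency for inhibition seen as loss of fluorescent signal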
Summary of the method: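 Biochemical CYP2C19 inhibition screen: insect-cell recombinant protein plus fluorescent substrate, 1 h, fluorescence intensity. Acetonitrile defined baseline activity. Single 10 uM concentration in duplicate, with concentration-response follow-up for actives.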

[6] = biological target: human Caspase 8 (CASP8), CASP8 (gene 841) (UniProt Q14790); test: NVS_ENZ_hCASP8: NovaScreen (NVS) Enzymatic Assay for human Caspase 8 (CASP8) (AID 2283146)
Summary of the method: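 E. coli-expressed enzyme was used in a cell-free fluorogenic substrate assay read 1 h after dosing. Loss of signal was scored relative to DMSO, and the primary screen was run in duplicate at 25 uM.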

[7] = biological target: human AKT serine/threonine Kinase 2 (AKT2), AKT2 (gene 208) (UniProt P31751); test: NVS_ENZ_hAKT2: NovaScreen (NVS) Enzymatic Assay for human AKT serine/threonine Kinase 2 (AKT2) (AID 2283141)
Summary of the method: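 Cell-free fluorescence/electrophoretic mobility shift readout of recombinant human AKT2 activity, 1 h after chemical dosing. Duplicate primary screen at 25 uM, then singleton concentration-response up to 50 uM; loss of signal versus DMSO baseline.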

[8] = biological target: human Colony Stimulating Factor 1 Receptor (CSF1R), CSF1R (gene 1436) (UniProt P07333); test: NVS_ENZ_hCSF1R: NovaScreen (NVS) Enzymatic Assay for human Colony Stimulating Factor 1 Receptor (CSF1R) (AID 2283150)
Summary of the method: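 Cell-free recombinant human CSF1R kinase with fluorescent substrate, product separated by electrophoretic mobility shift; read 1 h after dosing. Primary screen at 25 uM in duplicate, actives then in concentration-response up to 50 uM, relative to DMSO.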

[9] = biological target: human Caspase 4 (CASP4), CASP4 (gene 837) (UniProt P49662); test: NVS_ENZ_hCASP4: NovaScreen (NVS) Enzymatic Assay for human Caspase 4 (CASP4) (AID 2283143)
Summary of the method: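 The cell-free assay used E. coli-expressed enzyme with a fluorogenic substrate, read 2 h after dosing. Signal loss was scored versus DMSO. Screening was in duplicate at 25 uM, then singleton concentration-response up to 50 uM.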

[10] = biological target: human Caspase 5 (CASP5), CASP5 (gene 838) (UniProt P51878); test: NVS_ENZ_hCASP5: NovaScreen (NVS) Enzymatic Assay for human Caspase 5 (CASP5) (AID 2283137)
Summary of the method: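 E. coli-derived enzyme, cell-free, 2 h incubation, fluorescence intensity. 25 uM duplicate single-point; hits → concentration series to 50 uM. DMSO baseline, positive/negative controls on every plate.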

[11] = biological target: Cytochrome P450 3A4 (Homo sapiens) (UniProt P08684); test: NVS_ADME_hCYP3A4: NovaScreen (NVS) CYP450-related Enzyme Activity (ADME) Assay for human CYP3A4 (AID 2283110)
Summary of the method: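 Compounds were first screened in duplicate at 10 uM against recombinant CYP3A4 produced in insect cells, then actives were run in concentration series. Enzyme activity was measured by fluorescence after 0.33 hour, with acetonitrile as baseline.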

[12] = biological target: human Acid Phosphatase 1 (ACP1), ACP1 (gene 52) (UniProt P24666); test: NVS_ENZ_hACP1: NovaScreen (NVS) Enzymatic Assay for human Acid Phosphatase 1 (ACP1) (AID 2283136)
Summary of the method: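 Recombinant enzyme expressed in Sf9 cells, tested cell-free; activity read by fluorescence with electrophoretic mobility shift separation of substrate and product, 1.5 h after dosing. Primary screen in duplicate at 25 uM, actives then run in concentration series; loss of signal versus DMSO.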

[13] = biological target: human Casein Kinase 1-delta (CK1D), CSNK1D (gene 1453) (UniProt P48730); test: NVS_ENZ_hCK1D: NovaScreen (NVS) Enzymatic Assay for human Casein Kinase 1-delta (CK1D) (AID 2283148)
Summary of the method: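 Recombinant human CK1-delta, cell-free; fluorescent substrate with electrophoretic mobility-shift separation of product, read 1 h after dosing. Single 25 uM duplicate screen, then concentration-response up to 50 uM; loss of signal vs DMSO.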

[14] = biological target: human CYP1A1, CYP1A1 (gene 1543) (UniProt P04798); test: NVS_ADME_hCYP1A1: NovaScreen (NVS) CYP450-related Enzyme Activity (ADME) Assay for human CYP1A1 (AID 2283100)
Summary of the method: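 Inhibition of recombinant CYP1A1 turnover was assessed fluorometrically in a biochemical format 1 h after compound exposure. Testing began at 10 uM in duplicate and progressed to concentration series reaching 20 uM, with on-plate positive and negative controls.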

[15] = biological target: human CYP2B6, CYP2B6 (gene 1555) (UniProt P20813); test: NVS_ADME_hCYP2B6: NovaScreen (NVS) CYP450-related Enzyme Activity (ADME) Assay for human CYP2B6 (AID 2283101)
Summary of the method: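 Fluorescence-based enzyme activity of recombinant human CYP2B6, measured 1 h post-dose against acetonitrile vehicle baseline. Screened at a single concentration of 10 uM in duplicate before concentration-response follow-up.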

CDK2 (gene 1017) = CDK2 (gene 1017) (UniProt P24941); test: NVS_ENZ_hCDK2: NovaScreen (NVS) Enzymatic Assay for human Cyclin-Cependent Kinase 2 (CDK2) (AID 2283144)
Summary of the method: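 Cell-free recombinant human CDK2 with fluorescent substrate, product separated by electrophoretic mobility shift; 1 hr read. Primary screen at 25 uM in duplicate, actives retested in concentration-response up to 50 uM; loss of signal versus DMSO.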

Caspase-3 (Homo sapiens) = Caspase-3 (Homo sapiens) (UniProt P42574); test: NVS_ENZ_hCASP3: NovaScreen (NVS) Enzymatic Assay for human Caspase 3 (CASP3) (AID 2283139)
Summary of the method: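 Recombinant human caspase-3 from E. coli with a fluorogenic substrate, read by fluorescence 1 h after dosing. Primary screen in duplicate at 25 uM. Actives (for example ≥30% inhibition) rerun as concentration-response up to 50 uM.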

## c1ccc2c(c1)-c1cccc3c1c-2cc1ccccc13
[1]
  AC50: inconclusive: 10 µM

## COCCOC[C@H](CC1(C(=O)NC2CCC(C(=O)O)CC2)CCCC1)C(=O)Oc1ccc2c(c1)CCC2 (stereo not given in full)
[2]
  AC50: inconclusive: 10 µM

## CCCCCCCCOC(=O)c1cc(O)c(O)c(O)c1
[3]
  AC50: active: 7.75 µM
[4]
  outcome: inactive

## CC(C)(c1ccc(O)cc1)c1ccc(O)cc1
[5]
  AC50: inconclusive: 10.2 µM and inconclusive: 4.99 µM
[6]
  outcome: inactive

## CS(=O)(=O)OCCCCOS(C)(=O)=O
[5]
  outcome: inactive

## O=[N+]([O-])c1ccc(O)cc1
[4]
  AC50: inconclusive: 25 µM
[7]
  AC50: inconclusive: 25 µM

## O=C(O)c1cccc(Oc2ccccc2)c1
[7]
  AC50: inconclusive: 6.28 µM
[8]
  AC50: inconclusive: 4.96 µM

## CCN(Cc1cccnc1)C(=O)c1cccc(Cl)c1[C@]1(C)C(=O)N(Cc2ccc(OC)cc2OC)c2ccc(Cl)cc21
[9]
  outcome: inactive

## O=C(O)Cc1ccccc1Nc1c(Cl)cccc1Cl
[6]
  AC50: active: 12.3 µM

## CC1(C)C(C=C(Cl)Cl)C1C(=O)OCc1cccc(Oc2ccccc2)c1 (stereo not given)
[8]
  AC50: inconclusive: 0.68 µM

## Cc1c2ccccc2c(C)c2c1ccc1ccccc12
[10]
  AC50: inconclusive: 45.5 µM

## CCCOCCC
[11]
  AC50: inconclusive: 0.105 µM

## NC(=O)N1c2ccccc2C=Cc2ccccc21
[5]
  outcome: inactive

## CCCCOC(=O)C(C)Oc1ccc(Oc2ccc(C(F)(F)F)cn2)cc1 (stereo not given)
[5]
  outcome: inactive
[6]
  AC50: inconclusive: 0.0424 µM

## CCCCC(CC)C(=O)OCCOCCOCCOCCOC(=O)C(CC)CCCC (stereo not given)
[11]
  outcome: inactive

## CCn1c2ccccc2c2cc(N)ccc21
[11]
  AC50: inconclusive: 5 µM

## Clc1cc(Cl)c2c(c1)N=C1CCCCCN1C2
[12]
  AC50: inconclusive: 3.11 µM

## O=C(O)CC(O)(CC(=O)O)C(=O)O
[11]
  AC50: inconclusive: 16 µM
[13]
  AC50: inconclusive: 0.0906 µM

## O=C(c1ccccc1)c1ccc(O)cc1O
[11]
  AC50: inconclusive: 2.37 µM

## CCCCCCC(CCCCCCCCCCC(=O)OCC(COC(C)=O)OC(C)=O)OC(C)=O (stereo not given)
[5]
  AC50: inconclusive: 13.5 nM

## CCOc1ccc2c(c1)C(C)=CC(C)(C)N2
[3]
  AC50: active: 10 µM
[9]
  AC50: active: 15.1 µM
[13]
  AC50: inconclusive: 0.0345 µM

## O=C1CCCCC1
[10]
  outcome: inactive

## COC(=O)c1c(Cl)c(Cl)c(C(=O)OC)c(Cl)c1Cl
[14]
  AC50: inconclusive: 10 µM
[4]
  AC50: inconclusive: 25 µM

## O=C1c2c(O)ccc(Nc3ccc(CCO)cc3)c2C(=O)c2c([N+](=O)[O-])ccc(O)c21
[11]
  AC50: inconclusive: 0.0267 µM

## Nc1ccc(F)c([N+](=O)[O-])c1
[3]
  outcome: inactive

## CCCCCCOC(=O)CC(CC(=O)OCCCCCC)(OC(=O)CCC)C(=O)OCCCCCC
[15]
  AC50: inconclusive: 18.6 µM
[4]
  AC50: inconclusive: 25 µM

## O=c1[nH]c2ccc(S(=O)CCN3CCC(Cc4ccc(F)cc4)CC3)cc2o1 (stereo not given)
[11]
  AC50: inconclusive: 2.98 µM

## Oc1cc2ccccc2c2ccccc12
[11]
  AC50: active: 6.68 µM

## O=C(O)Cc1cc(I)c(Oc2cc(I)c(O)c(I)c2)c(I)c1
[3]
  AC50: inconclusive: 0.0677 µM
[5]
  outcome: inactive
CDK2 (gene 1017)
  outcome: inactive

## O=C(O)C1(C(=O)Nc2ccc(Cl)cc2Cl)CC1
[5]
  AC50: inconclusive: 117 nM
[12]
  AC50: active: 39.2 µM
CDK2 (gene 1017)
  AC50: active: 7.29 µM
[13]
  AC50: inconclusive: 25 µM

## O=C1CCC(C2CCCCC2)CC1
[5]
  outcome: inactive

## O=c1[nH]cnc2c1ncn2[C@H]1CC[C@@H](CO)O1
[12]
  AC50: inconclusive: 0.0243 µM
CDK2 (gene 1017)
  AC50: active: 25 µM

## COc1ccc(S(=O)(=O)N2C(=O)[C@@](c3ccccc3OC)(N3C[C@H](O)C[C@H]3C(=O)N(C)C)c3cc(Cl)ccc32)c(OC)c1
[11]
  AC50: active: 4.57 µM
[8]
  AC50: inconclusive: 25 µM

## CCc1c(C(=O)NN2CCCCC2)nn(-c2ccc(Cl)cc2Cl)c1-c1ccc(Br)cc1
[12]
  AC50: inconclusive: 25 µM
[4]
  AC50: inconclusive: 25 µM
Caspase-3 (Homo sapiens)
  AC50: inconclusive: 25 µM

## CN(Cc1cnc2nc(N)nc(N)c2n1)c1ccc(C(=O)N[C@@H](CCC(=O)O)C(=O)O)cc1
[15]
  outcome: inactive
[5]
  AC50: inconclusive: 10000 nM

## CCCCC/C=C\C/C=C\CCCCCCCC(=O)OC
[11]
  AC50: inconclusive: 0.00387 µM

## CCCc1cc(=O)[nH]c(=S)[nH]1
[12]
  outcome: inactive
Caspase-3 (Homo sapiens)
  outcome: inactive

## c1ccc2sc(SN(C3CCCCC3)C3CCCCC3)nc2c1
[5]
  outcome: inactive

## c1ccc2cc3c(ccc4ccccc43)cc2c1
[10]
  outcome: inactive
